Measurements: paper PMC11739459
No constants are given. Whether binding was seen depends on the method and setting. Binding seen in cells or lysates may run through a third protein. Some binding calls cover weakened binding; strength is not graded here.

Amino acid sequences for entries named in this document (tags omitted). Residues count along the entry.
UniProt P16070, residues 21-742: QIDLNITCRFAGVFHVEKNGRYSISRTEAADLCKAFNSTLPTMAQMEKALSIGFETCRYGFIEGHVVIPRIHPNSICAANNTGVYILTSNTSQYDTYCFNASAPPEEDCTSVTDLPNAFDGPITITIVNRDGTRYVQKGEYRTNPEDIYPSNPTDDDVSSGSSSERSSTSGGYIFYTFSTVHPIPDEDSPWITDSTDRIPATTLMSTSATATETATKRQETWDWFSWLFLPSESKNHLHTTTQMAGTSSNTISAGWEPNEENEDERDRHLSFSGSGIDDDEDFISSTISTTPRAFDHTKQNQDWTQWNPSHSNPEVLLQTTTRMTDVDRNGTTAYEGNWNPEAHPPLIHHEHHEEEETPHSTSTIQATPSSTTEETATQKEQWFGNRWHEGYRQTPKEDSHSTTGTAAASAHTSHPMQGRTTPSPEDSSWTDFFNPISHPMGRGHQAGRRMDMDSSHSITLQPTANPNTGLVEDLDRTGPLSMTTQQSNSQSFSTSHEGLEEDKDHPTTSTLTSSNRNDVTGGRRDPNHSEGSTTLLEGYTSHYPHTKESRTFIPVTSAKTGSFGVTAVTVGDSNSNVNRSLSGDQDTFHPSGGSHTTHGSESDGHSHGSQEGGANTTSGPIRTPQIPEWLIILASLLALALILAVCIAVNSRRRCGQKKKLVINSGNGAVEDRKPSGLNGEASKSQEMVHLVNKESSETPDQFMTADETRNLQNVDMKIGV
UniProt P13611, residues 21-3396: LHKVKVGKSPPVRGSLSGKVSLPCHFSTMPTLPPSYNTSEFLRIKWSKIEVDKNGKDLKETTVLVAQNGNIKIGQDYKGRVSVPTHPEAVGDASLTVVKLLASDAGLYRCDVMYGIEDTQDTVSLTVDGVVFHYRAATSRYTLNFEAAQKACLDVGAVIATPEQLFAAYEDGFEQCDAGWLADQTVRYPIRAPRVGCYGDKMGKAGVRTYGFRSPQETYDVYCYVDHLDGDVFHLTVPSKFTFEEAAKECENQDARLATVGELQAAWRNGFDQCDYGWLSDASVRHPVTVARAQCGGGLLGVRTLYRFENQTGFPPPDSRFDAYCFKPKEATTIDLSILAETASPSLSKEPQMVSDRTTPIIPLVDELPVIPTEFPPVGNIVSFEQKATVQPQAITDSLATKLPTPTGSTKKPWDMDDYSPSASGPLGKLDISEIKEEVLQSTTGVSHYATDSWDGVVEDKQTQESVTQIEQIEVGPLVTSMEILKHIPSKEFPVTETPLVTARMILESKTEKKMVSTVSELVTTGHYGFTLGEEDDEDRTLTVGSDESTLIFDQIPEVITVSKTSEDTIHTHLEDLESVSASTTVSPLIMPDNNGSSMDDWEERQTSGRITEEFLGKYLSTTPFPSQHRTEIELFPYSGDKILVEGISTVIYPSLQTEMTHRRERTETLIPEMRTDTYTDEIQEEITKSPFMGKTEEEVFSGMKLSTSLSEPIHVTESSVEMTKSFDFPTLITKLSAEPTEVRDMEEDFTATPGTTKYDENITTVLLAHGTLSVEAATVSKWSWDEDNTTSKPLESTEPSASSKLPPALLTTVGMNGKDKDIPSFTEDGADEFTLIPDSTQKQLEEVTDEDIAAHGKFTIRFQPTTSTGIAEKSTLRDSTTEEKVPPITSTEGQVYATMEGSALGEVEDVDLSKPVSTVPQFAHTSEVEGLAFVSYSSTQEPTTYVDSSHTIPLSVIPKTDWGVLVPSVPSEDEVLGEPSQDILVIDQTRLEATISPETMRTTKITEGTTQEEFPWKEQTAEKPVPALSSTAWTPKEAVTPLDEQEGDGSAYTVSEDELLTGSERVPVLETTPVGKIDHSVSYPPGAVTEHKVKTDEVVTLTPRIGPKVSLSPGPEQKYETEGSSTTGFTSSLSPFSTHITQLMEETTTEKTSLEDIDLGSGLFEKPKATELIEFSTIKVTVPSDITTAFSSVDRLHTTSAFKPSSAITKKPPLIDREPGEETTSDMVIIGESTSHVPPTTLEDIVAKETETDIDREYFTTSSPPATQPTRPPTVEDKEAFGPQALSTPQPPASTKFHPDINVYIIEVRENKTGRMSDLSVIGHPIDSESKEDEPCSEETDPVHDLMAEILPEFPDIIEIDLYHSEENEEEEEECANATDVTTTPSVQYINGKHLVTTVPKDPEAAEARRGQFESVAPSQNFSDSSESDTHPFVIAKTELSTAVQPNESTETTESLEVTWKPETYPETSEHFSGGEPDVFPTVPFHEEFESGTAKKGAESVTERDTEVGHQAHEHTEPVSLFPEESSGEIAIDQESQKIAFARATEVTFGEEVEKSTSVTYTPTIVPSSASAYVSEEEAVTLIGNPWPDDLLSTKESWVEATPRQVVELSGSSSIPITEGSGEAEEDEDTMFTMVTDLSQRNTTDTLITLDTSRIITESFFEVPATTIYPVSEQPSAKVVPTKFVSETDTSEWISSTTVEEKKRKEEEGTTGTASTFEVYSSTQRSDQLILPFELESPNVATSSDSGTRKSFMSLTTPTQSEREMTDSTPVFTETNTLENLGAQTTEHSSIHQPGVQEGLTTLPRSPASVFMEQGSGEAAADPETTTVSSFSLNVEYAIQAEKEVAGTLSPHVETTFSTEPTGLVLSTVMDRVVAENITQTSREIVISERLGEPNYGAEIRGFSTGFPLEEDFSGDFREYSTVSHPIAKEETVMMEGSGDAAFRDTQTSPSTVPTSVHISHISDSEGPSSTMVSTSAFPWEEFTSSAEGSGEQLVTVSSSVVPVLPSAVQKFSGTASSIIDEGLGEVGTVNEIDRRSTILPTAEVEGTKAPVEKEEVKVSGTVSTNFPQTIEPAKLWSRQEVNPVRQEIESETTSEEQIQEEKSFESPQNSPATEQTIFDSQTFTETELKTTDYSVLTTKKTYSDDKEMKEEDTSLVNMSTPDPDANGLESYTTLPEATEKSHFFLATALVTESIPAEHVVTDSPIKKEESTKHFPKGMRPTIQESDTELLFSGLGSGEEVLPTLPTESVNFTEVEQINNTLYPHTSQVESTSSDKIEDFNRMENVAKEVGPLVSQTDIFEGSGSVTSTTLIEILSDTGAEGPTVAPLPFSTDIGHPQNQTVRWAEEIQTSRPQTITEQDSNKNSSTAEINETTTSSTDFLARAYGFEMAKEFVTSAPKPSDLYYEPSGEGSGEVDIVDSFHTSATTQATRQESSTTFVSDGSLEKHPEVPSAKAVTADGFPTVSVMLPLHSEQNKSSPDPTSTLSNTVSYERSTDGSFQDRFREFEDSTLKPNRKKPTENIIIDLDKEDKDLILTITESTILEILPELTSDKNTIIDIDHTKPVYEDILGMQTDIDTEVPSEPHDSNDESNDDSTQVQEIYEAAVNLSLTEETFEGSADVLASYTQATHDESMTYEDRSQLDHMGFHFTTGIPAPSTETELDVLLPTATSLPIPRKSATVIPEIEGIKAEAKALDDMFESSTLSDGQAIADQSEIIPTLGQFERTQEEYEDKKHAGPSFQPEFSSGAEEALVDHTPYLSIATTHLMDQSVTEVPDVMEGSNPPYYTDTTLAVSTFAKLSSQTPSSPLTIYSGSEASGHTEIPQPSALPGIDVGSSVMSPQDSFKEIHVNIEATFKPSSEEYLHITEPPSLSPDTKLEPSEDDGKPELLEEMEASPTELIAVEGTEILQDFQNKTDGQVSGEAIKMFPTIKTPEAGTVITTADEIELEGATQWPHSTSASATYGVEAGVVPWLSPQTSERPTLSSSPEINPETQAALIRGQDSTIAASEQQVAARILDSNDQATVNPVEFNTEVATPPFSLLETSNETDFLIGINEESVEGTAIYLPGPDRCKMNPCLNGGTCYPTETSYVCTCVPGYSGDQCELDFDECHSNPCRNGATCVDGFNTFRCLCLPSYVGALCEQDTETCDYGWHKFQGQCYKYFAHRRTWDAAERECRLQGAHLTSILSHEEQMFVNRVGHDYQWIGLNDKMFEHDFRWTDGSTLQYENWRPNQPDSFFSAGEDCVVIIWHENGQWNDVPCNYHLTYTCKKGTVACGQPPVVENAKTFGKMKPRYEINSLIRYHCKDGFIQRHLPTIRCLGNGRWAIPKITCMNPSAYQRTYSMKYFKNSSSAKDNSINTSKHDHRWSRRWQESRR

Assays:
[1] = biological target: CD44 (human (endogenous in THP-1-derived macrophages and human GC cell lines)) (UniProt P16070); experiment: co-IP; lysate of GC cells; incubated overnight with control IgG or specific antibodies, Protein A + G agarose beads 2 h at 4°C, washed in PBS, SDS-PAGE
[2] = biological target: CD44 (human (endogenous in THP-1-derived macrophages and human GC cell lines)) (UniProt P16070); experiment: co-IP; lysate of polarized macrophages; incubated overnight with control IgG or specific antibodies, Protein A + G agarose beads 2 h at 4°C, washed in PBS, SDS-PAGE

“versican (VCAN) (from UniProt P13611 21-3396)” was tested, and the binding [1] was “binds” and the binding [2] was “binds”.
